Assay results published in US5424286A (priority 1993, dated 1995).
Not every detail of the peptide structures is certain; ends, links or a residue may be inferred.

Tested on: insulin secretion
Experiment: Alternating bolus injections of GLP-1 and exendin-4 via left atrial catheter in anesthetized dogs

CC[C@H](C)[C@H](NC(=O)[C@H](Cc1ccccc1)NC(=O)[C@H](CCC(=O)O)NC(=O)[C@H](CCCCN)NC(=O)[C@H](C)NC(=O)[C@H](C)NC(=O)[C@H](CCC(N)=O)NC(=O)CNC(=O)[C@H](CCC(=O)O)NC(=O)[C@H](CC(C)C)NC(=O)[C@H](Cc1ccc(O)cc1)NC(=O)[C@H](CO)NC(=O)[C@H](CO)NC(=O)[C@@H](NC(=O)[C@H](CC(=O)O)NC(=O)[C@H](CO)NC(=O)[C@@H](NC(=O)[C@H](Cc1ccccc1)NC(=O)[C@@H](NC(=O)CNC(=O)[C@H](CCC(=O)O)NC(=O)[C@H](C)NC(=O)[C@@H](N)Cc1c[nH]cn1)[C@@H](C)O)[C@@H](C)O)C(C)C)C(=O)N[C@@H](C)C(=O)N[C@@H](Cc1c[nH]c2ccccc12)C(=O)N[C@@H](CC(C)C)C(=O)N[C@H](C(=O)N[C@@H](CCCCN)C(=O)NCC(=O)N[C@@H](CCCNC(=N)N)C(N)=O)C(C)C [GLP-1, glucagon-like peptide-1]
AUC (insulin secreted, T-B) (Dog #1, 1 nmol): 2.0 | AUC (insulin secreted, T-B) (Dog #2, 1 nmol): 2.8 | AUC (insulin secreted, T-B) (Dog #3 (hyperglycemic), 1 nmol): 5.0 | AUC (insulin secreted, T-B) (Dog #3 (hyperglycemic), 10 nmol): 5.7
